Source: the supplement of paper PMC6821926, “Diaminoquinazoline MMV675968 from Pathogen Box inhibits Acinetobacter baumannii growth through targeting of dihydrofolate reductase” (Scientific Reports, 2019)
± gives the uncertainty stated by the source. The list shows a part of the results.

Tests used:
[1] = system: Acinetobacter baumannii Mahidol; assay: percent growth relative to DMSO-treated control; higher = less growth inhibition; details: 10 µM; 18 h
[2] = system: Acinetobacter baumannii Naval-81; assay: as above; details: 10 µM; 18 h

Compound	percent growth [1] [%]	percent growth [2] [%]
CC(C)NCC(=O)Nc1cccc(C(=O)Nc2cccc(C(F)(F)F)c2)c1	102 ± 10	67.9 ± 25
COc1ccc(-c2cnc3cnc(-c4cccc(OC(C)C)c4)cn23)cc1	97.5 ± 22	85.2 ± 13
O=C(Nc1nc(-c2ccccn2)cs1)C1CC1c1ccccc1F (configuration not stated)	72.8 ± 28	89.36 ± 0.4
Cc1cccc(NC(=O)c2cc(S(=O)(=O)N(C)c3ccc(F)cc3)ccc2Cl)n1	98.9 ± 16	118 ± 38
COc1cccn2c(C(=O)N3CCCCC3)c(C(F)(F)F)nc12	92.3 ± 12	89.1 ± 9.9
CC(Oc1ccccc1)C(=O)Nc1nc(-c2ccccn2)cs1 (configuration not stated)	92.7 ± 10	105 ± 16
Cn1c(=O)c2c(S(C)(=O)=O)snc2n(C)c1=O	77.3 ± 21	94.4 ± 10
CC(=O)NC[C@@H]1CN(c2ccc(N3CCOCC3)c(F)c2)C(=O)O1	106 ± 27	86.1 ± 4.8
NCC(c1cccs1)S(=O)(=O)c1ccccc1 (configuration not stated)	100 ± 11	78.6 ± 11
CCCn1c(NC(=O)c2ccc3ccccc3n2)nc2ccccc21	84.8 ± 13	99.7 ± 9.3
NC(=O)c1cc(-c2ccsc2)ccc1OCCOc1ccccc1	93.6 ± 13	96 ± 4.9
NCCC(O)C(=O)N[C@@H]1C[C@H](N)[C@@H](OC2O[C@H](CN)[C@@H](O)[C@H](O)[C@H]2O)[C@H](O)C1OC1O[C@H](CO)[C@@H](O)[C@H](N)[C@H]1O (some centres not stated)	84.7 ± 9.8	94.1 ± 21
CNC(=O)CNc1nc(-c2ccccn2)nc2scc(-c3ccccc3)c12	90.2 ± 18	104 ± 6.9
O=C(Nc1nc(-c2ccccn2)cs1)c1cncn1-c1ccccc1	113 ± 15	84.2 ± 19
Cc1ccc(NC(=O)c2cc(S(=O)(=O)NC(C)(C)C)ccc2C)nc1	92.5 ± 5.9	104 ± 25
Clc1cccc(C(c2ccc(CN3CCNCC3)cc2)n2ccnc2)c1 (configuration not stated)	86.1 ± 9.4	87.9 ± 10

In the list so far, 2 contain two or more sulfur atoms:
Compound	percent growth [1] [%]	percent growth [2] [%]
Cn1c(=O)c2c(S(C)(=O)=O)snc2n(C)c1=O	77.3 ± 21	94.4 ± 10
NCC(c1cccs1)S(=O)(=O)c1ccccc1 (configuration not stated)	100 ± 11	78.6 ± 11

(more compounds)

Compound	percent growth [1] [%]	percent growth [2] [%]
CC(C)C(C(=O)Nc1ccc(S(=O)(=O)N(C)C)cc1)c1ccc(Cl)cc1 (configuration not stated)	105 ± 23	71.2 ± 34
NCC(=O)N1CCn2c(nc(-c3ccccc3)c2Nc2ccc3c(c2)OCO3)C1	85.8 ± 5	101 ± 4
Cn1ncc2c(N3CCOCC3)nc(NCCc3c[nH]c4ccccc34)nc21	83.1 ± 32	82.6 ± 36
O=C(C(Cc1c[nH]c2ccccc12)NS(=O)(=O)c1ccc(Cl)cc1)N1CCCCC1 (configuration not stated)	129 ± 27	98.6 ± 40
COc1nc2ccc(Br)cc2cc1[C@@H](c1ccccc1)[C@@](O)(CCN(C)C)c1cccc2ccccc12	107 ± 11	92.8 ± 15
O=C(NC1CC1)c1ccc(N2CCOc3ccc(Cl)cc32)s1	42.9 ± 45	97.7 ± 23
O=C1[C@@H](Oc2ccccc2)[C@@H](c2ccc(Cl)cc2)N1CCn1cnc2c(NCc3ccccc3)ncnc21	100 ± 10	103 ± 14
COc1ccc2nccc(NC(=O)C3CCN(CCc4ccc(Cl)cc4)CC3)c2n1	44.9 ± 38	104 ± 11
COC(=O)c1ccc(F)cc1NS(=O)(=O)c1cccc(-c2cnn(Cc3ccccc3)c2)c1	78.5 ± 16	88.2 ± 1.9
Cc1cc(C(=O)Nc2ccc(-c3ccccc3)cc2)no1	68.6 ± 30	95.3 ± 18
COc1cc(CN2CCC3(C=Cc4ccccc43)CC2)cc2c1OCO2	102 ± 5.8	88.7 ± 16
CC(C)n1ncc2c(C(=O)NCC(c3cccs3)N3CCOCC3)cc(-c3ccccc3)nc21 (configuration not stated)	107 ± 19	92.7 ± 5.7
Cc1ccc2[nH]c3c(NCCN(C)C)ncnc3c2c1	131 ± 29	75.2 ± 65
CC(C)(C)C(=O)N(CCCCCCN1C[C@H](O)[C@@H](O)[C@H](O)[C@H]1CO)C1CCCCCC1	103 ± 4.9	84.4 ± 31
COc1ccc(C(=N)N)cc1-c1cn(-c2ccc(C(=N)N)cc2)nn1	105 ± 12	96.9 ± 14
